About 13,000 (3.2%) of roughly 400,000 compounds were called active. The shares of active, inactive and inconclusive entries below differ from those in the screen. Calls come from the whole dose curve; as a rule, active = well fitted cell-killing curve with a large enough effect; inconclusive = small, poorly fitted or top-dose-only effect, or effect the other way; inactive = flat fitted curve, though single readings scatter. Potencies of inconclusive entries are doubtful fits and often do not repeat.
Experiment: qHTS assay for MDR1-selective chemotherapeutics: Primary screen using the drug-selected MDR subline cells KB-V1; note: nearly all actives have a fitted effect of over 60% in size
Conditions: KB-V1 MDR cells viability, CellTiter-Glo, 72 h; series mostly up to 46.1 µM
Summary of the method: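 KB-V1 MDR subline cells in DMEM (phenol-red free, 10% FBS) exposed to compounds in qHTS concentration series for 72 h at 37 degrees C. Viability read by CellTiter-Glo luminescence; concentration-effect curves fitted after normalization and correction.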
Potency is the fitted concentration of half-maximal effect.

Structure (SMILES) | Potency
Cc1ccc(C(=O)Nc2ccc(S(=O)(=O)N3CCOCC3)cc2)cc1 | inactive
CCCCNC(=O)C1(C)CCCCCN1Cc1cc2ccccc2o1 (stereo not given) | inconclusive: 20.6 µM [cytotoxic, partial curve, poor fit]
CC(=O)c1ccc(NC(=O)c2cnn3c2NC(=C2CC2)C=C3C(F)F)cc1 | inconclusive: 29.1 µM [rising, partial curve, poor fit]
CO/N=C(\N)c1nonc1N | inconclusive: 29.1 µM [rising, single point]
C[C@H]1Cn2cnc(C(=O)Nc3cccc(Cl)c3)c2C(=O)N1 | inactive
Cc1cc([N+](=O)[O-])ccc1NC(=O)C[n+]1ccc(N(C)C)cc1 | inconclusive: 4.61 µM [rising, full curve, poor fit]
Cc1ccc(-n2ncc3c2CC(C)(C)CC3NC(=O)CCc2cnn(C)c2)cc1 (stereo not given) | inconclusive: 5.17 µM [cytotoxic, full curve, poor fit]
CCCCCn1cnc2c(sc3nc4c(cc32)CSC(C)(C)C4)c1=O | active: 14.6 µM
CN1CCN(c2ccc(NC(=O)c3ccc(-c4ccc(Br)cc4)o3)cc2)CC1 | inconclusive: 29.1 µM [cytotoxic, single point]
CCOc1ccccc1C(=O)NCCC(=O)O | inconclusive: 14.6 µM [rising, partial curve, poor fit]
O=C(CCN1C(=O)c2ccccc2C1=O)NC(=S)Nc1cccc(Cl)c1 | inactive
O=C(CSc1ccc(Cl)cc1)Nc1cccc(-c2nnc(-c3ccco3)o2)c1 | inconclusive: 2.59 µM [cytotoxic, full curve]
O=C(c1ccc2[nH]c(=O)c(=O)[nH]c2c1)N1CCc2ccccc21 | inactive
COc1ccc(-n2nc3ccc(NC(=O)c4cccc(OCCC(C)C)c4)cc3n2)cc1 | inconclusive: 23.1 µM [cytotoxic, single point]
O=C(CSc1nc2cc(Cl)ccc2o1)NCCc1ccccc1 | inconclusive: 23.1 µM [cytotoxic, partial curve, poor fit]
COc1cc2c(NC3CCN(C)CC3)nc(N3CCCN(C)CC3)nc2cc1OCC1CCNCC1 | inconclusive: 0.0046 µM [rising, full curve, poor fit]
COc1cccc(/C=C2/C(=O)NN(c3ccc(F)cc3)C2=O)c1 | inactive
COc1cccc(Cn2c(Cn3c(-c4cnccn4)nc4ccccc43)nc3ccccc32)c1 | inconclusive: 2.59 µM [cytotoxic, full curve]
O=C(Cc1ccc(F)cc1)N1CCN(c2ccc([N+](=O)[O-])cc2)CC1 | inactive
CN(C)C(=O)CCc1nc(-c2ccc(C(C)(C)C)cc2)no1 | inconclusive: 18.4 µM [cytotoxic, single point]
NC1C=CC=C(C(=O)O)C1 (stereo not given) | inconclusive: 0.0517 µM [rising, full curve]
COc1ccc(C(=O)NCCn2ccc3ccccc32)c(OC)c1 | inconclusive: 23.1 µM [cytotoxic, partial curve, poor fit]
O=C(NCc1ccccc1CN1CCCCC1)c1ccccc1N1CCCC1=O | inactive
CCCCNC(=O)C[C@@H]1C[C@@]2(C(=O)OCC)CCCC=C2N(Cc2ccc(Cl)cc2Cl)C1=O | active: 9.2 µM

Structure (SMILES) | Potency
C/C(=N/N=C(/C)c1cccs1)c1cccs1 | inconclusive: 29.1 µM [rising, single point]
CC(C)(Sc1ccc(CCN(CCCCC2CCCCC2)C(=O)NC2CCCCC2)cc1)C(=O)O | inactive
Cc1ccc(S(=O)(=O)N2[C@H](C(C)C)[C@H]3[C@H]4C(=O)N(c5ccccc5)C(=O)[C@H]4CC(=O)[C@H]3[C@@H]2c2ccccc2)cc1 | inactive
COC(=O)C1=C(C)N(Cc2ccc(OC)cc2)C(=O)/C1=C\c1ccco1 | inactive
CCN(c1nc(C)cc(OC)n1)S(=O)(=O)c1ccccc1 | inactive
CC(C)Oc1cc(F)ccc1-c1cc(C(=O)NCCc2ccncc2)[nH]n1 | inactive
COC(=O)c1ccccc1N=Nc1c(C)[nH][nH]c1=O | inconclusive: 29.1 µM [cytotoxic, single point]
O=C(OCc1cccc(C(F)(F)F)c1)c1cc(S(=O)(=O)N2CCOCC2)ccc1F | inconclusive: 14.6 µM [cytotoxic, partial curve, poor fit]
Cc1nc(NC(=O)c2ccccc2)sc1-c1cc(C(=O)NCCO)nn1Cc1ccccc1 | inactive
Cc1ccc2c(c1)cc1c(=O)n(Cc3ccc(Cl)cc3)nc(C)n12 | inactive
COc1cc(/C=N/NC(=O)c2ccncc2)ccc1OC(=O)c1ccco1 | inconclusive: 29.1 µM [rising, single point]
O=C(O)C1=C(C(=O)Nc2cc(C(F)(F)F)ccc2Cl)CCCC1 | inconclusive: 18.4 µM [rising, single point]
COc1ccc(C2CC(O)(c3ccccc3)Oc3cc(OC)c(OC)c(OC)c32)cc1 (stereo not given) | inactive
COc1ccc(-n2c(COc3ccc(C)cc3)nnc2SCC(=O)O)cc1 | inconclusive: 29.1 µM [rising, single point]
CC1(C(=O)NS(=O)(=O)c2ccc(F)cc2F)CCN1C(=O)C1(c2ccc(Cl)cc2)CCC1 (stereo not given) | inconclusive: 16.4 µM [cytotoxic, partial curve, poor fit]
COc1ccc(S(=O)(=O)N2CCOCC2)cc1NC(=O)CN(C)CC(=O)Nc1cccc(F)c1 | inconclusive: 29.1 µM [rising, single point]
CCOC(=O)N1CCN(c2ccc(C(F)(F)F)cn2)CC1 | inconclusive: 29.1 µM [cytotoxic, single point]
CCCC(=O)Nc1ccccc1NC(=O)C1CCCCC1 | inconclusive: 20.6 µM [cytotoxic, partial curve]
CC1CCCCN1C(=O)CN1C(=O)NC2(CCCCC2C)C1=O (stereo not given) | inconclusive: 29.1 µM [cytotoxic, single point]
CSCC[C@H](NC(=O)CC(C)(C)C)c1nc2ccccc2[nH]1 | inactive
CCOC(=O)N1CCC(NC(=O)c2ccc(N3CCC4(CC3)OCCO4)c([N+](=O)[O-])c2)CC1 | inconclusive: 6.51 µM [cytotoxic, partial curve, poor fit]
O=S(=O)(Nc1ccccc1N1CCOCC1)c1ccc(Cl)cc1 | inconclusive: 7.31 µM [cytotoxic, single point]
CCOC(=O)c1cccc(NC(=O)CSc2nnc(C3CCCCC3)n2CC)c1 | inconclusive: 5.17 µM [cytotoxic, partial curve]
CCc1cc2c(N3CCCCC3)ncnc2s1 | inactive

Structure (SMILES) | Potency
COc1ccc(C)c(Cn2c(-c3nonc3N)nc3ccccc32)c1 | active: 2.31 µM
Cc1cccc(C)c1NS(=O)(=O)c1ccc2c(c1)[C@H]1C=CC[C@H]1[C@@H](c1ccc(Cl)cc1)N2 | inconclusive: 9.2 µM [rising, partial curve, poor fit]
COc1cc(/C=N/n2nnnc2N)cc(OC)c1OC | inactive
O=C(NCCc1ccccc1)C(NS(=O)(=O)c1cccc2nsnc12)c1ccccc1 (stereo not given) | inconclusive: 4.61 µM [cytotoxic, partial curve, poor fit]
O=C1Cc2ccccc2Sc2cc(OCCCN3CCCCC3)ccc21 | inconclusive: 25.9 µM [cytotoxic, single point]
Nc1nc(SCc2nc(-c3ccccc3)no2)[nH]c(=O)c1-c1ccccc1 | active: 18.4 µM
Cn1c(SCc2cccnc2)nc2c(c1=O)SCC2 | inconclusive: 13 µM [cytotoxic, partial curve]
CC(=O)Nc1ccc(NC(=O)C(C)OC(=O)c2c(C)nn(-c3ccccc3)c2Cl)cc1 (stereo not given) | inconclusive: 9.2 µM [cytotoxic, partial curve]
COc1ccc(-n2nc(C#N)c(Cl)cc2=O)cc1 | inactive
CSc1ccc2c(c1)N(CCC1CCCCN1C)c1ccccc1S2 (stereo not given) | inconclusive: 23.1 µM [cytotoxic, single point]
COc1ccc(CCNC(=O)CCCNC(=O)Cn2cnc3sc(C)c(C)c3c2=O)cc1OC | inconclusive: 7.31 µM [rising, partial curve, poor fit]
CS(=O)(=O)Nc1ccccc1C(=O)NCCSc1ccc(Cl)cc1 | inactive
CCn1c(CNC(=O)c2cccc(C)c2)nnc1SCC(=O)N1CCOCC1 | inactive
Cc1[nH]c2ccccc2c1N=Nc1ccccc1F | inconclusive: 2.06 µM [rising, partial curve, poor fit]
COc1cccc2c1cc1c(=O)n(CC(=O)O)nc(C)n12 | inconclusive: 18.4 µM [rising, single point]
O=C(NNS(=O)(=O)c1ccc([N+](=O)[O-])cc1)c1ccc2ccccc2c1O | inconclusive: 23.1 µM [rising, single point]
Cc1noc(C)c1COc1cccc(C(=O)OCC(=O)N2CC(=O)Nc3ccccc32)c1 | inconclusive: 9.2 µM [cytotoxic, partial curve]
COc1ccc(N(C)S(=O)(=O)c2cccc(C(=O)Nc3ccc(N4CCOCC4)cc3)c2)cc1 | active: 14.6 µM
Cc1c(N=NC2=C(O)CC(C)(C)CC2=O)cc2c(c1[N+](=O)[O-])C(C)(C)CC2(C)C | inconclusive: 25.9 µM [cytotoxic, single point]
CCC(CC)C(=O)Oc1c(Sc2ccccc2[N+](=O)[O-])c(C)nn1C(C)(C)C | active: 14.6 µM
O=C(CSc1nnc(-c2cccc(F)c2)o1)N1CCOCC1 | inconclusive: 29.1 µM [rising, single point]
COc1ccccc1CNC(=O)CSc1cc(=O)n(C)c2ccccc12 | inconclusive: 29.1 µM [cytotoxic, single point]

In the list so far, these have two or more sulfur atoms.
Structure (SMILES) | Potency
CCCCCn1cnc2c(sc3nc4c(cc32)CSC(C)(C)C4)c1=O | active: 14.6 µM
C/C(=N/N=C(/C)c1cccs1)c1cccs1 | inconclusive: 29.1 µM [rising, single point]
O=C(NCCc1ccccc1)C(NS(=O)(=O)c1cccc2nsnc12)c1ccccc1 (stereo not given) | inconclusive: 4.61 µM [cytotoxic, partial curve, poor fit]
Cn1c(SCc2cccnc2)nc2c(c1=O)SCC2 | inconclusive: 13 µM [cytotoxic, partial curve]
CSc1ccc2c(c1)N(CCC1CCCCN1C)c1ccccc1S2 (stereo not given) | inconclusive: 23.1 µM [cytotoxic, single point]
CS(=O)(=O)Nc1ccccc1C(=O)NCCSc1ccc(Cl)cc1 | inactive
